Measurements from PubChem BioAssay AID2685 (National Center for Advancing Translational Sciences (NCATS), 2010).
The other results are listed elsewhere or left out. Shown are side measurements of this screen, not its main read-out; they come without a call. Most of these compounds were active or inconclusive in the main read-out, so they are no random draw. Potencies come from curve fits of mixed quality, noted in brackets.

Assay: qHTS Assay for Lipid Storage Modulators in Drosophila S3 Cells;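 on cell number change: cells counted by Cell Tracker Red CMTPX staining in the red channel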
Settings: BODIPY lipid droplet fluorescence, 18-24 h; for cell number change: measured here: cell count max response, cells fed with added oleic acid
Method in brief: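 Drosophila S3 cells loaded with oleic acid (400 uM, as added) and compounds at several concentrations; lipid droplets imaged by 488-nm laser-scanning cytometry, 500–530 nm intensity and object ratio to cell channel. Percent activity normalized to 20 uM Triacsin C.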

[1] = measured here: cell number channel AC50, cells fed with added oleic acid
[2] = measured here: lipid fluorescence (Fed channel) AC50, cells fed with added oleic acid

| Compound | cell number change | AC50 [1] | AC50 [2] |
| --- | --- | --- | --- |
| CC(=O)Nc1ccc(NC(=O)C(C)OC(=O)c2cc(S(=O)(=O)N(C)C)ccc2N2CCCC2)cc1 (centres undefined) | -64% | 5.17 µM [falling, single point] | 16.4 µM [rising, partial curve] |
| O=C(NCCc1ccc(Cl)cc1)c1ccc(OCC2CCCO2)cc1 (centres undefined) | 10.8% |  |  |
| CCOc1ccc(-n2c(O)c(/C=N/Nc3nnc(C)c(=O)[nH]3)c3ccccc3c2=O)cc1 | -7.78% |  | 0.411 µM [falling, full curve] |
| Clc1ccc(-n2nnnc2-c2ccccc2)cc1Cl | 4.15% |  | 32.6 µM [falling, partial curve, poor fit] |
| CC(=O)c1ccc(N/N=C(/C(N)=O)C2=NC(C)(C)Cc3ccccc32)cc1 | -21.8% |  | 29.1 µM [falling, single point] |
| CCC1(c2ccccc2)NC(=O)N(CC(=O)Nc2ccccc2N2CCCCC2)C1=O (centres undefined) | -5.52% |  | 29.1 µM [rising, single point] |
| COc1ccccc1N1CCN(C(=O)COc2cc(C)cc3oc(=O)cc(C)c23)CC1 |  |  | 4.61 µM [falling, single point] |
| COc1cc(/C=N/n2c(SC)nnc(C(C)(C)C)c2=O)ccc1O | 1.19% |  | 0.082 µM [falling, full curve, poor fit] |
| COc1ccc(OCC2CCCN(Cc3nc(CC4CC4)no3)C2)cc1 (centres undefined) | 16.1% |  | 14.6 µM [rising, partial curve, poor fit] |
| CCN1CCN(C(C(=O)NC2CCCC2)c2ccc(Cl)cc2)CC1 (centres undefined) | 40.7% | 20.6 µM [rising, single point] |  |
| COc1ccc(C(=O)N2CCN(C(=O)c3ccco3)CC2)cc1 | 12.2% |  | 6.51 µM [falling, single point] |
| COc1ccc(CNC(=O)C(=O)NCC2OCCN2C(=O)c2ccc(OC)cc2)cc1 (centres undefined) | 14.7% | 5.8 µM [rising, partial curve] | 4.11 µM [rising, full curve, poor fit] |
| Cc1ccc(-c2nsc3c(N4CCC(C(N)=O)CC4)ncnc23)cc1 | -95.8% |  | 18.4 µM [falling, partial curve] |
| O=C1Nc2cc(C(=O)N3CCC(N4CCCCC4)CC3)ccc2S/C1=C\c1ccccc1 | 17% |  | 10.3 µM [falling, single point] |
| CC1(C)CSC(=NCCc2ccccc2)N1 |  |  | 29.1 µM [falling, single point] |
| COc1ccc(CC(=O)Nc2ccc(S(=O)(=O)Nc3cc(OC)nc(OC)n3)cc2)cc1 | 7.56% |  |  |
| COc1ccc(N2CCN(CCCNC(=O)Cn3c(=O)c4cccn4c4ccccc43)CC2)cc1 | -33.6% |  | 29.1 µM [falling, single point] |
| CC(=O)Nc1cc(C(=O)c2ccccc2)ccc1N1CCOCC1 |  |  | 6.51 µM [rising, single point] |
| CN1CCc2c(sc(NC(=O)C3CCCN3S(=O)(=O)c3ccc(Cl)s3)c2C(N)=O)C1 (centres undefined) | 35.7% | 1.16 µM [rising, full curve] |  |
| Cc1cccc(C(=O)NC(=S)Nc2ccccc2C(F)(F)F)c1 | 6.35% |  | 23.1 µM [rising, single point] |

Sorted by molecular weight (ascending): some entries from above

| Compound | cell number change | AC50 [1] | AC50 [2] |
| --- | --- | --- | --- |
| O=C(NCCc1ccc(Cl)cc1)c1ccc(OCC2CCCO2)cc1 (centres undefined) | 10.8% |  |  |
| COc1ccccc1N1CCN(C(=O)COc2cc(C)cc3oc(=O)cc(C)c23)CC1 |  |  | 4.61 µM [falling, single point] |
| CC(=O)Nc1ccc(NC(=O)C(C)OC(=O)c2cc(S(=O)(=O)N(C)C)ccc2N2CCCC2)cc1 (centres undefined) | -64% | 5.17 µM [falling, single point] | 16.4 µM [rising, partial curve] |

Next part.

| Compound | cell number change | AC50 [1] | AC50 [2] |
| --- | --- | --- | --- |
| Cn1cnc([N+](=O)[O-])c1Sc1nnc(-c2cccnc2)n1C | -37.5% | 20.6 µM [falling, single point] | 0.651 µM [falling, full curve, poor fit] |
| CC(=O)c1ccc2noc(-c3ccccc3)c2c1 | -20.8% |  | 25.9 µM [falling, partial curve, poor fit] |
| Cc1ccc(OCC(=O)Nc2ccc(S(=O)(=O)Nc3cc(C)nc(C)n3)cc2)c(C)c1 | 6.83% |  |  |
| COc1cc(NC(=O)c2cc(-c3cccnc3)nc3ccc(C)cc23)c(OC)cc1Cl | 69.8% | 18.4 µM [rising, single point] | 0.58 µM [rising, single point] |
| O=C(CSS(=O)(=O)O)N1CCN(C(=O)c2ccoc2)CC1 | 1.15% |  |  |
| O=C(Nc1ncc2c(n1)CC(c1ccco1)CC2=O)c1ccc(Cl)cc1 (centres undefined) | 9.5% |  | 20.6 µM [rising, single point] |
| C#Cc1cccc(NC(=O)C2CCN(C(C)=O)CC2)c1 | 16.6% |  | 11.6 µM [rising, partial curve] |
| CN(CC(=O)Nc1ccccc1Cl)C(=O)CSc1nnc(-c2ccco2)n1C |  |  | 6.51 µM [rising, single point] |
| Cc1oc(-c2ccoc2)nc1CN(CC1CCC(=O)N1)C(C)C (centres undefined) | 34.1% | 0.00517 µM [rising, full curve, poor fit] | 29.1 µM [rising, single point] |
| CCOC(=O)Cc1csc(NC(=O)CSc2nc(-c3ccccc3)c(C#N)c(=O)[nH]2)n1 | -37.7% | 20.6 µM [falling, single point] | 29.1 µM [falling, single point] |
| O=S(=O)(c1ccc2c(c1)OCCO2)N(Cc1ccc(F)cc1)Cc1nnc(-c2cccs2)o1 |  | 0.58 µM [rising, single point] | 0.58 µM [rising, single point] |
| Cc1nc(-c2ccccc2)sc1-c1nc(-c2ccccc2)ncc1S(=O)(=O)c1ccccc1 | 11.8% |  | 16.4 µM [rising, single point] |
| CC1CCCCN1S(=O)(=O)c1ccc(NC(=O)CSc2nnnn2C)cc1 (centres undefined) | 3.55% |  |  |
| CN=C1S/C(=C\c2cc(C)n(-c3ccccc3F)c2C)C(=O)N1C |  |  | 29.1 µM [falling, single point] |
| Cc1cccc(NC(=O)CSc2nnc(-c3ccco3)o2)c1 | 47.2% | 3.26 µM [rising, full curve] | 4.61 µM [rising, single point] |
| Clc1ccc(Nc2ncn[nH]2)c(Cl)c1 | -36.8% | 0.092 µM [falling, full curve] | 1.46 µM [falling, full curve] |
| O=C(Nc1ccccc1)N(Cc1cccs1)C1CCCC1 | 8.6% |  | 11.6 µM [rising, single point] |
| Cc1cccc(N=C2C(=O)Nc3c(Cl)cccc32)c1 | -13% |  |  |
| CCOCCCNC(=S)N1C2CCC1CC(NC(=O)NC1CCCCC1)C2 (centres undefined) | 6.41% | 5.17 µM [falling, partial curve] | 0.13 µM [falling, full curve, poor fit] |
| O=c1oc2ccccc2c(O)c1CN1CCCCC1 | 12.3% |  | 0.116 µM [rising, single point] |

| Compound | cell number change | AC50 [1] | AC50 [2] |
| --- | --- | --- | --- |
| CC(=O)CNc1ccc(S(=O)(=O)N/N=C/c2ccccc2)cc1 | 10.4% |  |  |
| COCC(=O)Nc1ccc(S(=O)(=O)Nc2ccccn2)cc1 | -38.1% | 0.731 µM [falling, full curve] | 0.13 µM [falling, full curve, poor fit] |
| CC(C)(C)c1ccc(OCC(=O)NCCN2CCOCC2)cc1 | -21.1% |  | 0.1 µM [rising, full curve, poor fit] |
| COc1ccc(CCNC(=O)c2cc3c(=O)n4cccc(C)c4nc3n(CCCN3CCOCC3)c2=N)cc1 | -15.9% |  | 0.651 µM [falling, full curve] |
| Cc1cc(C)cc(NC(=O)C(=O)NCc2ccccn2)c1 | 8.76% |  |  |
| O=C(CC1NC2CCCCC2NC1=O)Nc1cccc(C(F)(F)F)c1 (centres undefined) | -32.5% | 0.731 µM [falling, full curve] |  |
| N#CC(c1ccccn1)c1ncc(C(F)(F)F)cc1Cl (centres undefined) | 32.6% | 18.4 µM [rising, single point] | 20.6 µM [rising, partial curve] |
| CCN1CCCC1CN(Cc1cc2ccc(C)c(C)c2[nH]c1=O)C(=O)Nc1ccccc1OC (centres undefined) | 12.5% |  | 6.51 µM [falling, single point] |
| Cc1ccc(NC(=S)N(C)N)cc1Cl | 40.8% | 9.2 µM [rising, partial curve] |  |
| CCOc1ccc(C(=O)Nc2ccc(S(=O)(=O)N3CCOCC3)cc2)cc1OCC | -8.18% |  |  |
| Cc1nn(C)c(C)c1NC(=O)Nc1ccc(Cl)c(Cl)c1 | -23.6% | 3.26 µM [falling, single point] | 2.59 µM [falling, full curve] |
| COC(=O)C(C)N=Cc1ccccc1 (centres undefined) | -16.3% | 0.58 µM [falling, full curve] | 0.651 µM [falling, partial curve, poor fit] |
| Cc1cccc(OCc2occc2C(=O)Nc2cccc(-n3cnnn3)c2)c1 | -11.5% |  | 0.58 µM [falling, single point] |
| O=C(CN1CCN(Cc2ccccc2F)C1=O)NCCN1CCOCC1 | 35.4% | 14.6 µM [rising, partial curve, poor fit] | 18.4 µM [rising, partial curve] |
| CCOC(=O)C1CCCN(c2c(Nc3ccc(C)c(C)c3)c(=O)c2=O)C1 (centres undefined) | 59% | 8.2 µM [rising, partial curve] | 8.2 µM [rising, partial curve] |
| Cc1cccc(OCC(=O)N/N=C\c2cn(C)c3ccccc23)c1 | -63% | 20.6 µM [falling, single point] | 14.6 µM [falling, partial curve] |
| Cc1ccc(Nc2nc(N)nc(CCl)n2)c(C)c1 | -3.2% |  | 0.411 µM [rising, full curve, poor fit] |
| CN(C)S(=O)(=O)c1ccc(C(=O)NN2C(=O)NC3(CCCCC3)C2=O)cc1 | -23.3% |  |  |
| O=C(Nc1cccc(F)c1)C1CCN(c2nnnn2-c2ccccc2)CC1 | 13.9% |  | 1.46 µM [rising, full curve, poor fit] |

Filtered by structure: those above with a cyano group (2)

| Compound | cell number change | AC50 [1] | AC50 [2] |
| --- | --- | --- | --- |
| CCOC(=O)Cc1csc(NC(=O)CSc2nc(-c3ccccc3)c(C#N)c(=O)[nH]2)n1 | -37.7% | 20.6 µM [falling, single point] | 29.1 µM [falling, single point] |
| N#CC(c1ccccn1)c1ncc(C(F)(F)F)cc1Cl (centres undefined) | 32.6% | 18.4 µM [rising, single point] | 20.6 µM [rising, partial curve] |
